Reference: patent CN104447994A
No constants are given. Whether binding was seen depends on the method and setting. Some binding calls cover weakened binding; strength is not graded here. For some of these results: Sequences can lack the tags named with a protein.

Columns and labels:
[1] = target: T1, p63 (native p63 in tumour cells and tissues) (UniProt Q9H3D4); assay: Western blot
T1 sequence (looked up): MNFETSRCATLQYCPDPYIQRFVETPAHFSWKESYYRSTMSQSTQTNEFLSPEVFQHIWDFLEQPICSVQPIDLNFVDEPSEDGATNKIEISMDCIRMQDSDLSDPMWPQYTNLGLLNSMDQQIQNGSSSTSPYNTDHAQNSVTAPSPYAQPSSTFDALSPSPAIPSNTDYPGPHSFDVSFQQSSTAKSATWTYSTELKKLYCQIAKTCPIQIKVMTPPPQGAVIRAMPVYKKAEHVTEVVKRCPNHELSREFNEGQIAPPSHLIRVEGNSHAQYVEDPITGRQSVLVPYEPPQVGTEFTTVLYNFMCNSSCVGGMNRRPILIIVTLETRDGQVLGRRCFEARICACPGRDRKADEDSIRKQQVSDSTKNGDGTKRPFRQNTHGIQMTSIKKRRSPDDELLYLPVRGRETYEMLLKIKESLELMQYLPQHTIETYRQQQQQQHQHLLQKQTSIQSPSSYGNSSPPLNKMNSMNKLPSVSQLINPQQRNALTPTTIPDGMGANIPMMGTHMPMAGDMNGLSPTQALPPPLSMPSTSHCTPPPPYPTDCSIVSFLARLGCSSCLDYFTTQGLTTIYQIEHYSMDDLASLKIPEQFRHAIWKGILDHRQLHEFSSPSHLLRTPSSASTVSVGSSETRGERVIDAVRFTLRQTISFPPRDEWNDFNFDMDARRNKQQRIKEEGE

[2] = target: T2, 重组p63抗原蛋白 (recombinant p63 fragment expressed in E. coli, with PelB signal peptide and His tag) (UniProt Q9H3D4); assay: Western blot
T2 sequence (looked up): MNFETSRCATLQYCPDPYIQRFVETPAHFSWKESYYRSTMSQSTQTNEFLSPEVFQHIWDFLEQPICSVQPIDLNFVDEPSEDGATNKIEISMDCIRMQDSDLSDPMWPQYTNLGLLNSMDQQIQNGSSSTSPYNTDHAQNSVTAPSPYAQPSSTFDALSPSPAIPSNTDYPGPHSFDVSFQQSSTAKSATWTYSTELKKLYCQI

[3] = target: T2, 重组p63抗原蛋白 (recombinant p63 fragment expressed in E. coli, with PelB signal peptide and His tag); assay: Western blot, Figure 2
[4] = target: T2, 重组p63抗原蛋白 (recombinant p63 fragment expressed in E. coli, with PelB signal peptide and His tag); assay: Western blot on recombinant p63, antibody diluted 1:1000

Measured: binding

B1: 60738-10D8单克隆抗体 (monoclonal antibody secreted by hybridoma 60738-10D8) (antibody, V domains shown)
VH: QVQLQESGAELVKPGASVKLSCKASGFTFSSSHIYWVKQRPGQGLEWIGGINHSNAGINFTEKFKNKATLTVDKSSSTAYMQVSSLTSEDSAVYYCKQVSYWGQGTLVTVSA
VL: DIVITQDELSLPVSLGDHASISCRSSQSLVFSDGNTYLHWYLQKPGQSPKLLIYIVFNRFSGVPDRFSGSGSGTDFTHKISRVEAEDLGVYFCSQSTHVTAYTFGGGTKLEIKR
binds: all assays above
